42 sequences from article PMC7819943, “Rice protein-binding microarrays: a tool to detect cis-acting elements near promoter regions in rice” can be followed below.

This is one part of the list.

For this test, the target named is T1, OsSMF1 (Oryza sativa, UniProt Q6ZLB0 1-436).
T1 sequence: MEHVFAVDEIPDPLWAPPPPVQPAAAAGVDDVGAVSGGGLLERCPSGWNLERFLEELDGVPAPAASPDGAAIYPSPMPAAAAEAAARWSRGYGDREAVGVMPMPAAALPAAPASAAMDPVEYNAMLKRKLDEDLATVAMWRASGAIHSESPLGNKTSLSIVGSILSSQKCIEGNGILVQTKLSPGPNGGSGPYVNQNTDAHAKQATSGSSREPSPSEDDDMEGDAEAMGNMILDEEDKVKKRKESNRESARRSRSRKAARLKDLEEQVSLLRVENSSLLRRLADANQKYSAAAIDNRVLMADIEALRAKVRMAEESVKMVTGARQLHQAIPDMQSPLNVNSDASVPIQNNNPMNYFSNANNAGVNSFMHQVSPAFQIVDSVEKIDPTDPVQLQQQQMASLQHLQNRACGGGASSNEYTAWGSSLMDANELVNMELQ
The test can be described thus: protein-binding microarray (RPBM); PBS, 2% BSA, 51.3 ng/ul salmon testes DNA, 50 uM zinc acetate, 200 nM TF, 25 C, 1 h; high values mean tight binding. As to conditions: protein: recombinant; tags: N-terminal polyhistidine and DsRed monomer fusion (pET32a); chain copies: 2; label: CyDye5-dUTP incorporated in the synthesized complementary strand; 3' TTTTT single-stranded linker to array surface; dsDNA, one strand shown. Put shortly: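 Binding signal is defined as the fluorescence intensity of each feature in arbitrary units, read on an Axon 4000B scanner. Transcription factors with N-terminal polyhistidine and DsRed fusions came from E. coli BL21-CodonPlus and were purified on Ni–NTA. They were incubated at 200 nM for 1 h at 25 °C on a custom Agilent array that had been made double-stranded with Cy5-dUTP, with 50 µM zinc acetate present, and the array was washed.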
As to “GTGGCTACAAAAGCATGTCCACGTAGGACAGGTGGGCCCCCGGAGTCACCTAGTGCAG”, the binding signal is 18400 fluorescence intensity (a.u.).
Regarding “TATGAAAGTTTTCGATGTGATGTAATGTGATGGAAAGTTACGGAGTCACCTAGTGCAG”, the binding signal was 3140 fluorescence intensity (a.u.).
In the case of “GATGTCGTATTACGTAGATCCTCGTACCAGCGTACTCCAACGGAGTCACCTAGTGCAG” it was 4200 fluorescence intensity (a.u.); in that of “CTCCCTAGCTAGCCGCTCCTTCTCCTCTGTCGCCGGCGGCCGGAGTCACCTAGTGCAG”, 3220 fluorescence intensity (a.u.); in that of “TCATTGTCCATGTCATGGCCGGCGTCCTCATGGATGCAGACGGAGTCACCTAGTGCAG”, 4820 fluorescence intensity (a.u.).
Under “CGGGCTAGGATTTGCGTGGGCTGGGCCGGATCTGCTCGCGCGGAGTCACCTAGTGCAG” stands 3300 fluorescence intensity (a.u.); under “GTCTTCTGAATTTTGACGCACAAATAATTGTGTCAACATACGGAGTCACCTAGTGCAG”, 17000 fluorescence intensity (a.u.); under “AGTCGTGTGCTTAGGGAAACGGTGACGACATAAAAGCGACCGGAGTCACCTAGTGCAG”, 3530 fluorescence intensity (a.u.).
Under “GGGACCCACCCGCGCGTGGGGCCCACGCGTCAGCCTCGCTCGGAGTCACCTAGTGCAG” stands 20700 fluorescence intensity (a.u.); under “TCATGCGGTTCGTGTTCGGCAAGGAGTACGACGTGTCGCGCGGAGTCACCTAGTGCAG”, 5800 fluorescence intensity (a.u.).
For “ACTGTAGTAGTAGTAGATTCGCTTGCCGTCACTCTCGTCCCGGAGTCACCTAGTGCAG”, the binding signal was 3170 fluorescence intensity (a.u.).
Consider “GATCCTGATAGGACTGCGCATGTGCTTGTGGGACACGTCGCGGAGTCACCTAGTGCAG”, for which the binding signal was 3170 fluorescence intensity (a.u.).
Consider “TTCTAAGAATCTAGTAAAACTGGGTTTCTCAGCTTCTGGCCGGAGTCACCTAGTGCAG”, for which the binding signal is 26000 fluorescence intensity (a.u.).
On to “AATAAGAGGGAAGAGATGAGGTGGCACCCTGATATGTGGGCGGAGTCACCTAGTGCAG”, for which the binding signal is 11900 fluorescence intensity (a.u.).
In the case of “GGCACCTCGCCGCCGGGCGCGGTGGTCTACCCGCCGCATCCGGAGTCACCTAGTGCAG” it was 3400 fluorescence intensity (a.u.); in that of “GGGGCGGGGCGGCCGTGCTTACACATGTTGGCAACGCACGCGGAGTCACCTAGTGCAG”, 4390 fluorescence intensity (a.u.); in that of “GTCACTGGCTTTGTTCCCGTTCTATATATGTCATTGAGTTCGGAGTCACCTAGTGCAG”, 4290 fluorescence intensity (a.u.).
In the case of “CTCTCGCTCCGATCGTCCGCGCCACGGCGGCGACACGATGCGGAGTCACCTAGTGCAG” it was 6580 fluorescence intensity (a.u.); in that of “ACGATCCCCGAGCCTCTCTCGCGCGCGTCCCGTCACGTCTCGGAGTCACCTAGTGCAG”, 3800 fluorescence intensity (a.u.).
In the case of “ATTAAGCACTACGTCAGATATGATTGGCCATCATTGCATTCGGAGTCACCTAGTGCAG” it was 3150 fluorescence intensity (a.u.); in that of “CCAGTGACGGGAAACGCCACCTCCGCGCCACGCCTCATCGCGGAGTCACCTAGTGCAG”, 4240 fluorescence intensity (a.u.).
For “GCGCGCAAGGCGGCGTCGCTGACAGGGCCGACGCTTTCCCCGGAGTCACCTAGTGCAG”, the binding signal is 4420 fluorescence intensity (a.u.).
Under “ATTCGTAGTACTATGATGTGTCACATTCAATTTTAGATTGCGGAGTCACCTAGTGCAG” stands 5750 fluorescence intensity (a.u.); under “ATATTTGAACCGGTACAAAACCGTCGAACCAGCAGGTTTTCGGAGTCACCTAGTGCAG”, 24700 fluorescence intensity (a.u.).
Under “TGCAGGAACGAAATCAAACTTGTTTTCAAGTTAAGGATCTCGGAGTCACCTAGTGCAG” stands 30800 fluorescence intensity (a.u.); under “GATTGGCTTGGGTTTGACAGGTTAATAAGCCACGTCAGTTCGGAGTCACCTAGTGCAG”, 9760 fluorescence intensity (a.u.); under “CCACTACATTTGAACCGGAATGTACGTGGCCAAAGGATTTCGGAGTCACCTAGTGCAG”, 4680 fluorescence intensity (a.u.).
“TGACTTTATGAATCCAACATTGAGCAATGCTACAGCTCCACGGAGTCACCTAGTGCAG”: the binding signal is 3280 fluorescence intensity (a.u.).
Under “AAAACAAACCCATTTGATATATTTCCAATTTGTATATTTCCGGAGTCACCTAGTGCAG” stands 3830 fluorescence intensity (a.u.); under “TAGAAAGTATAGATAAATATTCTTCATGCCACATAATTGGCGGAGTCACCTAGTGCAG”, 3420 fluorescence intensity (a.u.); under “ATATCCACCCCTAGTTCCAACTTATTAGTCATTTACAAGTCGGAGTCACCTAGTGCAG”, 4040 fluorescence intensity (a.u.).
Under “GGAGCTGAGGAGGGACAGCGAGCCAGCGAGGGAGGTGGGGCGGAGTCACCTAGTGCAG” stands 3160 fluorescence intensity (a.u.); under “AGGGAATTACCAGCTGTAAATGATATGGAGGAATTTGAATCGGAGTCACCTAGTGCAG”, 4140 fluorescence intensity (a.u.); under “ACCCACACATCATTCTCTCTTTTCTCTATCCCTCTCTATCCGGAGTCACCTAGTGCAG”, 3960 fluorescence intensity (a.u.).
In the case of “CTGAGGGACCTAAAGTAAACGGTTTTGTAAGTTGAGATGGCGGAGTCACCTAGTGCAG” it was 35300 fluorescence intensity (a.u.).
For the sequence “AACCGCGCACCCGTGGCGGTCAACTCGACCGGCTCCAACCCGGAGTCACCTAGTGCAG”, the binding signal was 3330 fluorescence intensity (a.u.).
Under “GACACACGTCACTTCTCAACACGGTCTCCCTCTCTGCCTCCGGAGTCACCTAGTGCAG” stands 8560 fluorescence intensity (a.u.); under “CACGGCGTGTGCACGGACATGCAGTACTGCTGCCCTGACTCGGAGTCACCTAGTGCAG”, 3490 fluorescence intensity (a.u.); under “TTACGATCACCGAAAAGTGGTAGCGTACGTGTTGAGTGTGCGGAGTCACCTAGTGCAG”, 4140 fluorescence intensity (a.u.).
In the case of “GATGAAGAGGAAGAGGAGACAGTGCTCGACACGCCTGCAGCGGAGTCACCTAGTGCAG” it was 4180 fluorescence intensity (a.u.); in that of “AAAATCCAAAGCTGCTGGGGTCAGCTCAGCTCGAACCCTGCGGAGTCACCTAGTGCAG”, 3210 fluorescence intensity (a.u.); in that of “TCGTATAGGTCCACGAGGGCGGGACCAGCTGTAACCGTGACGGAGTCACCTAGTGCAG”, 4400 fluorescence intensity (a.u.).
